{"source": "PubChem BioAssay AID504764, Drosophila RNAi Screening Center – 2011", "purpose": "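Knock-downs that raise or lower a Notch target reporter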 (primary screen)", "cells": "Drosophila Kc167 cells", "knock-down reagent": "long dsRNA against Drosophila genes", "timing": "about 5 days (4 days dsRNA, then 24 h after transfection)", "conditions": "transfection of constitutively active membrane-tethered Notch lacking the extracellular domain, read 24 h later", "measured": "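Light from a Notch-responsive E(spl)m3 luciferase reporter under active Notch, with control-promoter and no-Notch reporter wells to normalise; raw counts from paired wells a and b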", "scale": "induced reporter light, run 1, well a and induced reporter light, run 1, well b: higher = more light from the Notch target reporter with active Notch; control promoter light, run 1, well a and control promoter light, run 1, well b: higher = more light from the viral control promoter (cell number, transfection, viability); uninduced reporter light, run 1, well a: higher = more light from the Notch target reporter without active Notch", "rule for the call": "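Wells with low control signal or poorly matching duplicates excluded; duplicates averaged; per source plate, z beyond ±2 for induced/control log2 ratio or beyond ±1.8 for induced/uninduced marks a hit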", "meaning of the calls": "active = modifier hit (raised or lowered Notch signal); inactive = not a hit", "note": "The deposit covers about 22,000 reagents; below is an unselected part of those that have a named target and a result. Over the whole deposit, 403 (1.9%) were called active. 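Unnormalised raw counts per well; ratio z-scores behind the hit calls and whether each hit raises or lowers signal are not deposited.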 Not given: the amount of reagent."}
The first 3 records as a preview:
{"predicted target":"CG14370","amplicon":"DRSC14832","induced reporter light, run 1, well a":2.12e5,"induced reporter light, run 1, well b":2.19e5,"control promoter light, run 1, well a":2.28e5,"control promoter light, run 1, well b":2.40e5,"uninduced reporter light, run 1, well a":17875,"outcome":"inactive"}
{"predicted target":"CG15109","amplicon":"DRSC06536","induced reporter light, run 1, well a":95435,"induced reporter light, run 1, well b":78855,"control promoter light, run 1, well a":1.02e5,"control promoter light, run 1, well b":1.23e5,"uninduced reporter light, run 1, well a":8010,"outcome":"inactive"}
{"predicted target":"l(2)05714 (lethal (2) 05714)","amplicon":"DRSC03118","induced reporter light, run 1, well a":95770,"induced reporter light, run 1, well b":86175,"control promoter light, run 1, well a":95330,"control promoter light, run 1, well b":89425,"uninduced reporter light, run 1, well a":8535,"outcome":"inactive"}

The list itself, from the first entry:
{"predicted target":"CG14370","amplicon":"DRSC14832","induced reporter light, run 1, well a":2.12e5,"induced reporter light, run 1, well b":2.19e5,"control promoter light, run 1, well a":2.28e5,"control promoter light, run 1, well b":2.40e5,"uninduced reporter light, run 1, well a":17875,"outcome":"inactive"}
{"predicted target":"CG15109","amplicon":"DRSC06536","induced reporter light, run 1, well a":95435,"induced reporter light, run 1, well b":78855,"control promoter light, run 1, well a":1.02e5,"control promoter light, run 1, well b":1.23e5,"uninduced reporter light, run 1, well a":8010,"outcome":"inactive"}
{"predicted target":"l(2)05714 (lethal (2) 05714)","amplicon":"DRSC03118","induced reporter light, run 1, well a":95770,"induced reporter light, run 1, well b":86175,"control promoter light, run 1, well a":95330,"control promoter light, run 1, well b":89425,"uninduced reporter light, run 1, well a":8535,"outcome":"inactive"}
{"predicted target":"upd2 (unpaired 2)","amplicon":"DRSC19969","induced reporter light, run 1, well a":1.09e5,"induced reporter light, run 1, well b":85355,"control promoter light, run 1, well a":1.08e5,"control promoter light, run 1, well b":1.02e5,"uninduced reporter light, run 1, well a":13290,"outcome":"inactive"}
{"predicted target":"Iyd (Iodotyrosine deiodinase)","amplicon":"DRSC10614","induced reporter light, run 1, well a":1.61e5,"induced reporter light, run 1, well b":1.30e5,"control promoter light, run 1, well a":1.63e5,"control promoter light, run 1, well b":1.66e5,"uninduced reporter light, run 1, well a":7435,"outcome":"inactive"}
{"predicted target":"Iyd (Iodotyrosine deiodinase)","amplicon":"DRSC10615","induced reporter light, run 1, well a":1.96e5,"induced reporter light, run 1, well b":1.47e5,"control promoter light, run 1, well a":2.17e5,"control promoter light, run 1, well b":2.09e5,"uninduced reporter light, run 1, well a":9820,"outcome":"inactive"}
{"predicted target":"Tbc1d8-9 (TBC1 domain family member 8/9)","amplicon":"DRSC11820","induced reporter light, run 1, well a":1.41e5,"induced reporter light, run 1, well b":1.53e5,"control promoter light, run 1, well a":91430,"control promoter light, run 1, well b":97400,"uninduced reporter light, run 1, well a":11630,"outcome":"inactive"}
{"predicted target":"CG11617","amplicon":"DRSC00321","induced reporter light, run 1, well a":49860,"induced reporter light, run 1, well b":44465,"control promoter light, run 1, well a":40365,"control promoter light, run 1, well b":23040,"uninduced reporter light, run 1, well a":5635,"outcome":"inactive"}
{"predicted target":"CG11617","amplicon":"DRSC21786","outcome":"inactive"}
{"predicted target":"MED6 (Mediator complex subunit 6)","amplicon":"DRSC16500","induced reporter light, run 1, well a":1.14e5,"induced reporter light, run 1, well b":1.15e5,"control promoter light, run 1, well a":73620,"control promoter light, run 1, well b":68800,"uninduced reporter light, run 1, well a":9670,"outcome":"inactive"}
{"predicted target":"VhaPPA1-2 (Vacuolar H[+] ATPase PPA1 subunit 2)","amplicon":"DRSC16176","induced reporter light, run 1, well a":2.30e5,"induced reporter light, run 1, well b":2.23e5,"control promoter light, run 1, well a":2.53e5,"control promoter light, run 1, well b":2.42e5,"uninduced reporter light, run 1, well a":18640,"outcome":"inactive"}
{"predicted target":"Ube4A (Ubiquitination factor E4A)","amplicon":"DRSC02004","induced reporter light, run 1, well a":2.38e5,"induced reporter light, run 1, well b":2.38e5,"control promoter light, run 1, well a":1.90e5,"control promoter light, run 1, well b":2.19e5,"uninduced reporter light, run 1, well a":17755,"outcome":"inactive"}
{"predicted target":"CG15362","amplicon":"DRSC00392","induced reporter light, run 1, well a":1.26e5,"induced reporter light, run 1, well b":1.40e5,"control promoter light, run 1, well a":1.04e5,"control promoter light, run 1, well b":58880,"uninduced reporter light, run 1, well a":8480,"outcome":"inactive"}
{"predicted target":"CG17377","amplicon":"DRSC00950","induced reporter light, run 1, well a":1.32e5,"induced reporter light, run 1, well b":95090,"control promoter light, run 1, well a":1.77e5,"control promoter light, run 1, well b":1.34e5,"uninduced reporter light, run 1, well a":10705,"outcome":"inactive"}
{"predicted target":"CG17377","amplicon":"DRSC02615","induced reporter light, run 1, well a":1.99e5,"induced reporter light, run 1, well b":2.44e5,"control promoter light, run 1, well a":2.30e5,"control promoter light, run 1, well b":2.07e5,"uninduced reporter light, run 1, well a":19865,"outcome":"inactive"}
{"predicted target":"Ced-12","amplicon":"DRSC02840","induced reporter light, run 1, well a":1.84e5,"induced reporter light, run 1, well b":1.76e5,"control promoter light, run 1, well a":2.00e5,"control promoter light, run 1, well b":2.20e5,"uninduced reporter light, run 1, well a":18630,"outcome":"inactive"}
{"predicted target":"LBR (Lamin B receptor)","amplicon":"DRSC04298","induced reporter light, run 1, well a":2.56e5,"induced reporter light, run 1, well b":2.92e5,"control promoter light, run 1, well a":2.37e5,"control promoter light, run 1, well b":2.06e5,"uninduced reporter light, run 1, well a":17500,"outcome":"inactive"}
{"predicted target":"SiaT (Sialyltransferase)","amplicon":"DRSC04494","induced reporter light, run 1, well a":1.26e5,"induced reporter light, run 1, well b":1.24e5,"control promoter light, run 1, well a":1.42e5,"control promoter light, run 1, well b":1.42e5,"uninduced reporter light, run 1, well a":9485,"outcome":"inactive"}
{"predicted target":"grn (grain)","amplicon":"DRSC12666","induced reporter light, run 1, well a":2750,"induced reporter light, run 1, well b":2340,"control promoter light, run 1, well a":2578,"control promoter light, run 1, well b":2342,"uninduced reporter light, run 1, well a":2860,"outcome":"inactive"}
{"predicted target":"grn (grain)","amplicon":"DRSC16961","induced reporter light, run 1, well a":94245,"induced reporter light, run 1, well b":73255,"control promoter light, run 1, well a":84800,"control promoter light, run 1, well b":58865,"uninduced reporter light, run 1, well a":7820,"outcome":"inactive"}
{"predicted target":"ND-B14.7 (NADH dehydrogenase (ubiquinone) B14.7 subunit)","amplicon":"DRSC04544","induced reporter light, run 1, well a":43450,"induced reporter light, run 1, well b":35670,"control promoter light, run 1, well a":44465,"control promoter light, run 1, well b":56560,"uninduced reporter light, run 1, well a":1792,"outcome":"inactive"}
{"predicted target":"CG6700","amplicon":"DRSC02980","induced reporter light, run 1, well a":2.11e5,"induced reporter light, run 1, well b":1.76e5,"control promoter light, run 1, well a":1.48e5,"control promoter light, run 1, well b":1.90e5,"uninduced reporter light, run 1, well a":16895,"outcome":"inactive"}
{"predicted target":"AnxB9 (Annexin B9)","amplicon":"DRSC14111","induced reporter light, run 1, well a":1.64e5,"induced reporter light, run 1, well b":1.71e5,"control promoter light, run 1, well a":2.22e5,"control promoter light, run 1, well b":2.24e5,"uninduced reporter light, run 1, well a":14885,"outcome":"inactive"}
{"predicted target":"CG14259","amplicon":"DRSC14754","induced reporter light, run 1, well a":1.66e5,"induced reporter light, run 1, well b":1.26e5,"control promoter light, run 1, well a":1.88e5,"control promoter light, run 1, well b":1.50e5,"uninduced reporter light, run 1, well a":12445,"outcome":"inactive"}
